Results taken from PMC11968908.
No constants are given. Whether binding was seen depends on the method and setting. Binding seen in cells or lysates may run through a third protein.

The chains behind the UniProt entries cited, without tags or fusion partners.
UniProt Q03135: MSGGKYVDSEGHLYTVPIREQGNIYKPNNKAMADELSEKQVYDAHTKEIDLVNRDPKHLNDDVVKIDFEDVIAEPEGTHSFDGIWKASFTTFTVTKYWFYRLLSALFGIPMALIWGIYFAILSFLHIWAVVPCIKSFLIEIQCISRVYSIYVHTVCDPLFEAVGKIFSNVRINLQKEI

Target: CAV1 (human (endogenous in MIA PaCa-2 and PANC1)) (UniProt Q03135)
Assay: co-IP; Pierce Co-Immunoprecipitation Kit; MIA PaCa-2 and PANC1 cells lysed in mild lysis buffer, lysates on a column coated with 5 µg primary antibody, overnight at 4 °C; eluates read by Western blot; which antibody precipitated is not stated

binding: no binding
B1: SLC40A1 (protein, UniProt Q9NP59 1-571)
chain: MTRAGDHNRQRGCCGSLADYLTSAKFLLYLGHSLSTWGDRMWHFAVSVFLVELYGNSLLLTAVYGLVVAGSVLVLGAIIGDWVDKNARLKVAQTSLVVQNVSVILCGIILMMVFLHKHELLTMYHGWVLTSCYILIITIANIANLASTATAITIQRDWIVVVAGEDRSKLANMNATIRRIDQLTNILAPMAVGQIMTFGSPVIGCGFISGWNLVSMCVEYVLLWKVYQKTPALAVKAGLKEEETELKQLNLHKDTEPKPLEGTHLMGVKDSNIHELEHEQEPTCASQMAEPFRTFRDGWVSYYNQPVFLAGMGLAFLYMTVLGFDCITTGYAYTQGLSGSILSILMGASAITGIMGTVAFTWLRRKCGLVRTGLISGLAQLSCLILCVISVFMPGSPLDLSVSPFEDIRSRFIQGESITPTKIPEITTEIYMSNGSNSANIVPETSPESVPIISVSLLFAGVIAARIGLWSFDLTVTQLLQENVIESERGIINGVQNSMNYLLDLLHFIMVILAPNPEAFGLLVLISVSFVAMGHIMYFRFAQNTLGNKLFACGPDAKEVRKENQANTSVV
